Values from PubChem BioAssay AID1224828 (NIAID, 2016).
Shown is one part, drawn at random, of about 17,000 reagents. 762 of them (4.5%) count as active. 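Active calls include both raised and lowered p65 entry, mostly lowered; wells with fewer than 50 cells lack a z-score.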 Raw values vary from plate to plate and are shown uncorrected. The numbers tell different reagents against one gene apart. No sequences are given here.

Test: 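Regulators linking TLR4 signalling to p65 nuclear translocation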 (primary screen)
System: mouse RAW264.7 G9 macrophage reporter cells (GFP-p65, Tnf promoter-mCherry)
Reagent: siRNA pool against mouse genes, 100 nM
Duration: 2 days siRNA transfection, then 40 min LPS before fixation
Conditions: LPS (Salmonella minnesota R595) at 10 ng/ml
Read-out: 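Microscopy ratio of nuclear to perinuclear-ring GFP-p65 signal, scaled to the plate median; gene score is the average of two replicate robust z-scores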
Reading the numbers: p65 translocation robust z-score: higher = more nuclear NF-kappaB p65 after LPS than the plate median; nuclear/cytoplasmic p65 ratio: higher = more nuclear NF-kappaB p65
Call rule: 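Active if robust z is above 3.3 (negative regulators) or below -1.56, the Tlr4 control median (positive regulators); activity score 50 or more; control wells not called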
Calls: active = hit (p65 shift raised or lowered); inactive = no clear change

The first 3 records as a preview:
| target gene | reagent | p65 translocation robust z-score | nuclear/cytoplasmic p65 ratio, rep 1 | nuclear/cytoplasmic p65 ratio, rep 2 | low cell count flag | Call |
| --- | --- | --- | --- | --- | --- | --- |
| Or8j3c (GeneID 259082) | 1 | 0.01 | 1.7 | 1.54 | enough cells to score | inactive |
| Il1r1 (GeneID 16177) | 1 | -0.36 | 1.38 | 1.37 | enough cells to score | inactive |
| Uba3 (GeneID 22200) | 1 | 0.07 | 1.56 | 1.48 | enough cells to score | inactive |

The list itself, from the start:
| target gene | reagent | p65 translocation robust z-score | nuclear/cytoplasmic p65 ratio, rep 1 | nuclear/cytoplasmic p65 ratio, rep 2 | low cell count flag | Call |
| --- | --- | --- | --- | --- | --- | --- |
| Or8j3c (GeneID 259082) | 1 | 0.01 | 1.7 | 1.54 | enough cells to score | inactive |
| Il1r1 (GeneID 16177) | 1 | -0.36 | 1.38 | 1.37 | enough cells to score | inactive |
| Uba3 (GeneID 22200) | 1 | 0.07 | 1.56 | 1.48 | enough cells to score | inactive |
| Ptpn12 (GeneID 19248) | 1 | -1.03 | 1.36 | 1.27 | enough cells to score | inactive |
| Plaat1 (GeneID 27281) | 1 | 0.73 | 1.58 | 1.42 | enough cells to score | inactive |
| Glra1 (GeneID 14654) | 1 | -1.47 | 1.2 | 1.22 | enough cells to score | inactive |
| Bard1 (GeneID 12021) | 1 | -0.62 | 1.54 | 1.5 | enough cells to score | inactive |
| Rps6ka2 (GeneID 20112) | 1 | 1.66 | 1.88 | 1.64 | enough cells to score | inactive |
| 4632404H12Rik (GeneID 74034) | 1 | -0.15 | 1.26 | 1.25 | enough cells to score | inactive |
| Btk (GeneID 12229) | 1 | 2.11 | 1.35 | 1.65 | enough cells to score | inactive |
| Smyd3 (GeneID 69726) | 1 | 1.01 | 1.34 | 1.72 | enough cells to score | inactive |
| Tex12 (GeneID 66654) | 1 | – | 1.05 | 1.09 | fewer than 50 cells per well; well left out of scoring | inactive |
| Zfp696 (GeneID 100043133) | 1 | -0.07 | 1.42 | 1.53 | enough cells to score | inactive |
| Mmachc (GeneID 67096) | 1 | – | 1.15 | 1.12 | fewer than 50 cells per well; well left out of scoring | inactive |
| Defa6 (GeneID 13240) | 1 | 0.58 | 1.56 | 1.42 | enough cells to score | inactive |
| Taf9 (GeneID 108143) | 1 | -0.13 | 1.56 | 1.62 | enough cells to score | inactive |
| Taf9 (GeneID 108143) | 2 | -0.79 | 1.25 | 1.11 | enough cells to score | inactive |
| Prpf18 (GeneID 67229) | 1 | 0.11 | 1.63 | 1.63 | enough cells to score | inactive |
| Mia3 (GeneID 338366) | 1 | -0.11 | 1.39 | 1.51 | enough cells to score | inactive |
| Vmn1r93 (GeneID 404290) | 1 | – | 1.29 | 1.13 | fewer than 50 cells per well; well left out of scoring | inactive |
| Pramel37 (GeneID 381724) | 1 | – | 1.25 | 1.24 | fewer than 50 cells per well; well left out of scoring | inactive |
| Otoa (GeneID 246190) | 1 | 1.68 | 1.69 | 1.62 | enough cells to score | inactive |
| Gosr1 (GeneID 53334) | 1 | 1.2 | 1.55 | 1.57 | enough cells to score | inactive |
| Dclre1a (GeneID 55947) | 1 | 0.31 | 1.52 | 1.4 | enough cells to score | inactive |
| Smarcad1 (GeneID 13990) | 1 | -0.19 | 1.55 | 1.51 | enough cells to score | inactive |
| A830019P07Rik (GeneID 329056) | 1 | 0.86 | 1.47 | 1.66 | enough cells to score | inactive |
| Aifm2 (GeneID 71361) | 1 | -0.55 | 1.5 | 1.57 | enough cells to score | inactive |
| Padi4 (GeneID 18602) | 1 | – | 1.54 | 1.49 | fewer than 50 cells per well; well left out of scoring | inactive |
| Zfp781a (GeneID 211135) | 1 | -0.06 | 1.57 | 1.77 | enough cells to score | inactive |
| Tmem175 (GeneID 72392) | 1 | – | 1.15 | 1.23 | fewer than 50 cells per well; well left out of scoring | inactive |
| Znrf1 (GeneID 170737) | 1 | -1.19 | 1.31 | 1.75 | enough cells to score | inactive |
| Isy1 (GeneID 57905) | 1 | – | 1.44 | 1.05 | fewer than 50 cells per well; well left out of scoring | inactive |
| Tmem215 (GeneID 320500) | 1 | 0.9 | 1.56 | 1.59 | enough cells to score | inactive |
| Prnd (GeneID 26434) | 1 | -1.06 | 1.39 | 1.24 | enough cells to score | inactive |
| Rps6ka4 (GeneID 56613) | 1 | – | 1.24 | 1.04 | fewer than 50 cells per well; well left out of scoring | inactive |
| Hinfp (GeneID 102423) | 1 | 0.7 | 1.68 | 1.75 | enough cells to score | inactive |
| Scpep1 (GeneID 74617) | 1 | – | 1.65 | 1.35 | fewer than 50 cells per well; well left out of scoring | inactive |
| Trpc4ap (GeneID 56407) | 1 | 1.48 | 1.51 | 1.46 | enough cells to score | inactive |
| Anxa5 (GeneID 11747) | 1 | 0.15 | 1.69 | 1.59 | enough cells to score | inactive |
| Pdia5 (GeneID 72599) | 1 | 0.2 | 1.6 | 1.32 | enough cells to score | inactive |
| Or6z3 (GeneID 258917) | 1 | 0.25 | 1.64 | 1.54 | enough cells to score | inactive |
| Kcnb2 (GeneID 98741) | 1 | 0.62 | 1.72 | 1.69 | enough cells to score | inactive |
| Msra (GeneID 110265) | 1 | 0.18 | 1.42 | 1.4 | enough cells to score | inactive |
| Dsg4 (GeneID 16769) | 1 | -0.77 | 1.4 | 1.23 | enough cells to score | inactive |
| Garin1b (GeneID 330277) | 1 | 0.21 | 1.47 | 1.77 | enough cells to score | inactive |
| Hdhd5 (GeneID 214932) | 1 | -0.94 | 1.56 | 1.51 | enough cells to score | inactive |
| Lingo4 (GeneID 320747) | 1 | 0.21 | 1.4 | 1.56 | enough cells to score | inactive |
| Sub1 (GeneID 20024) | 1 | 0.53 | 1.49 | 1.69 | enough cells to score | inactive |
| Zc3h13 (GeneID 67302) | 1 | 0.4 | 1.23 | 1.4 | enough cells to score | inactive |
| Slc22a30 (GeneID 319800) | 1 | 1.25 | 1.83 | 1.93 | enough cells to score | inactive |
| Arhgef12 (GeneID 69632) | 1 | -0.41 | 1.61 | 1.51 | enough cells to score | inactive |
| Gch1 (GeneID 14528) | 1 | 0.21 | 1.47 | 1.4 | enough cells to score | inactive |
| Eva1a (GeneID 232146) | 1 | -1.18 | 1.28 | 1.79 | enough cells to score | inactive |
| Tph1 (GeneID 21990) | 1 | – | 1.32 | 1.29 | fewer than 50 cells per well; well left out of scoring | inactive |
| Trav7d-6 (GeneID 320734) | 1 | 1.23 | 1.73 | 2.04 | enough cells to score | inactive |
| Ppp1r12a (GeneID 17931) | 1 | -0.67 | 1.38 | 1.35 | enough cells to score | inactive |
| Fhit (GeneID 14198) | 1 | -1.12 | 1.27 | 1.24 | enough cells to score | inactive |
| Fgf14 (GeneID 14169) | 1 | 1.24 | 1.59 | 1.54 | enough cells to score | inactive |
| Kti12 (GeneID 100087) | 1 | -0.55 | 1.43 | 1.4 | enough cells to score | inactive |
